Measurements from PubChem BioAssay AID1439 (NMMLSC, 2008).
Among all 220,000 compounds or so, about 770 (0.35%) were called active. The inconclusive results got no clear call from the source; some entries with a clear call stand among them for comparison. No stated cut-off is given here; in the data, active means binding response below about 49% or above about 150%; inconclusive means no clear call, values can overlap the other calls; inactive means in between.

The chains behind the UniProt entries cited, without tags or fusion partners.
UniProt P09471, whole entry, looked up: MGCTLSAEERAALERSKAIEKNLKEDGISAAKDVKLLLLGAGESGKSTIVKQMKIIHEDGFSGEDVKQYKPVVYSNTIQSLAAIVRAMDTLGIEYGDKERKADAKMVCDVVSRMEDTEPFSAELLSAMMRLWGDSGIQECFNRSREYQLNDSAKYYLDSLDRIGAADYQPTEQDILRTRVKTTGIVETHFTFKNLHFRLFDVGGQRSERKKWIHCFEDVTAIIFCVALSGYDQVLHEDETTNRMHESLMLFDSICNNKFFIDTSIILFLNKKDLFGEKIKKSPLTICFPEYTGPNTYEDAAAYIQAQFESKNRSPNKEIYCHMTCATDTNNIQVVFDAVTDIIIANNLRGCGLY

The compounds below were run against Guanine nucleotide-binding protein G(o) subunit alpha (Homo sapiens) (UniProt P09471) (assay: RGS7-Galphao binding modulators, primary screen, biochemical, multiplexed bead flow cytometry (AID 1439;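 further: fluorescent Galphao held in activated GDP-AlF4 state binding bead-coupled RGS7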)). Details: at 10 µM, actives lie on both sides.

SMILES | binding response (% of control)
Cc1cc(C)c(S(=O)(=O)Nc2ccc3[nH]c(=O)[nH]c3c2)c(C)c1 | inconclusive: 110%
COc1cc(/C=C(/C#N)C(=O)Nc2ccc(Cl)cc2)ccc1Oc1nc(Cl)ncc1F | inconclusive: 83.6%
CCOC(=O)C1=C(CC)Nc2ccccc2N=C1NC(=O)c1ccc(S(=O)(=O)N2CCCC2)cc1 | inconclusive: 95.9%
Cc1nc(C)c(Oc2cccc(C(F)(F)F)c2)c(=O)[nH]1 | inconclusive: 90.3%
Cc1ccccc1-c1nc(P(=O)(c2ccccc2)c2ccccc2)c(N2CCOCC2)o1 | inconclusive: 38.4%
Cc1nc(CNC(=O)CC2C(=O)NCCN2Cc2ccoc2)nc2c1CCCC2 (configuration not stated) | inconclusive: 10.1%
Cc1ccc(/C=C/C(=O)c2ccc(N3CCOCC3)cc2)s1 | inactive: 100%
Cc1cc(C)n2nc(C(=O)N/N=C/c3ccccc3C)nc2n1 | inconclusive: 32.5%
Cc1nn(-c2ccccc2)c(C)c1/C=N/NC(=O)c1cccs1 | inactive: 100%
Cn1c(-c2ccc(C=O)s2)nc2c3ccccc3c3ccccc3c21 | inactive: 99.8%
CC(=O)Nc1cccc(OCC(=O)Nc2ccccc2)c1 | inactive: 104%
NC(=S)N1CCCc2ccccc21 | inconclusive: 86%
O=C(O)c1ccc2c(c1)C(=O)N(c1nccs1)C2=O | inconclusive: 125%
O=C1c2cccc3cccc(c23)C(=O)N1CCN1CCN(CC(O)COc2ccccc2)CC1 (configuration not stated) | inactive: 102%
O=C(O)c1cc(-c2ccc(Cl)s2)nc2ccccc12 | inconclusive: 110%
CCN1C(=O)/C(=c2\sc3nc(=O)c(Cc4ccccc4)nn3c2=O)c2ccccc21 | inconclusive: 86.7%
O=C(COC(=O)c1ccccc1C(=O)N1CCN(c2ccccc2)CC1)NCc1ccccc1 | inconclusive: 65.1%
Cc1ccc(NCc2nnc(SCC(=O)NNC(=O)Cc3ccccc3)n2C)cc1 | inconclusive: 104%
Cc1ccccc1NC(=O)Cn1c(=O)n(CC2CCCO2)c(=O)c2ccccc21 (configuration not stated) | inactive: 106%
CC(=O)N1Cc2cc(N)ccc2Oc2ccccc21 | inconclusive: 109%
COc1cc2c(cc1OC)C(C1(O)CCCCC1)NCC2 (configuration not stated) | inconclusive: 97.5%
CC1CC(=O)N(c2ccc(Br)cc2)C(=O)C1 | inconclusive: 101%
Cc1nn(-c2ccccc2)c2c1C(c1ccc([N+](=O)[O-])cc1)C(C#N)=C(N)O2 (configuration not stated) | inconclusive: 112%

SMILES | binding response (% of control)
COc1ccc2[nH]c(C(=O)O)c(NC(=O)c3ccccc3[N+](=O)[O-])c2c1 | inconclusive: 101%
S=C(c1ccc(-c2ccc(Br)cc2)o1)N1CCOCC1 | inconclusive: 103%
O=C(Nc1ccccc1)c1ccccc1N=Cc1cccc(O)c1 | inconclusive: 114%
N#C/C(=C(/O)Cc1ccccc1)P(=O)(c1ccccc1)c1ccccc1 | inconclusive: 82.9%
O=C(Nc1cccc(F)c1)c1cc(S(=O)(=O)N2CCOCC2)cs1 | inactive: 101%
O=S(=O)(Oc1ccc(Cl)cc1)c1cccc2cccnc12 | inconclusive: 93.6%
Cc1ccc(-n2c(-c3cc(-c4ccco4)[nH]n3)n[nH]c2=S)c(Br)c1 | inconclusive: 195%
CCOC(=O)c1cc(C(=O)c2ccccc2O)cn2c(=O)c3c(C)c(C)sc3nc12 | inconclusive: 57.5%
CC(=O)Nc1ccc(C)c(NS(=O)(=O)c2cccc(C(F)(F)F)c2)c1 | inconclusive: 99.7%
Cc1ccc2cccc(S(=O)(=O)N3CCCc4ccccc43)c2n1 | inconclusive: 102%
CCC(C)Sc1nc(O)c(Cc2ccccc2)c(=O)[nH]1 (configuration not stated) | inactive: 114%
CSC1=N/C(=C\c2cccc(Cl)c2)C(=O)N1N(C)C | inconclusive: -301%
CN(C)c1ccc(NC(=O)C2CCCN(S(=O)(=O)c3ccccc3)C2)cc1 (configuration not stated) | inactive: 96.9%
COc1ccc(/C=C2\SC(=O)N(CC(=O)NN3CCN(C)CC3)C2=O)cc1OC | inconclusive: 123%
COC(=O)c1sc(N(C)C)c(C#N)c1-c1ccccc1 | inconclusive: 179%
CSc1nc2cc(C)nn2c(-c2ccccc2Cl)c1C#N | inconclusive: 92.6%
S=c1[nH]cnc2scc(-c3ccc(Cl)cc3)c12 | inconclusive: 69.9%
CCCC(=O)OCC(=O)Nc1cc(C(C)(C)C)nn1-c1ccccc1 | inactive: 112%
COc1cc(C2CC(=O)Oc3c(C(CCN4CCOCC4)c4ccc(N(C)C)cc4)c(OC)cc(OC)c32)cc(OC)c1OC (configuration not stated) | inconclusive: 101%
S=C(Nc1ccccc1)Nc1ccc(Br)cc1 | inconclusive: 76.9%
Cn1c(C(O)c2ccc(Br)cc2)nc(Cl)c1Cl (configuration not stated) | inconclusive: 120%
CCCN(CCC)S(=O)(=O)c1ccc(C(=O)Nc2cc3oc4ccccc4c3cc2OC)cc1 | inactive: 99.1%
Cc1cc(NC(=O)Nc2cc(F)ccc2F)no1 | inconclusive: 113%

SMILES | binding response (% of control)
CCOc1ccccc1N1CCN(Cc2cnc(-c3ccccc3)[nH]2)CC1 | inconclusive: 89.2%
O=C1NCCCC1C(=O)N/N=C/c1ccc([N+](=O)[O-])cc1 (configuration not stated) | inconclusive: 101%
O=S(=O)(Nc1cccc(Cl)c1)c1ccc2oc(=S)[nH]c2c1 | inconclusive: 113%
Cn1nc(C2CC2)cc1NC(=O)CC(CC(=O)O)c1ccccc1 (configuration not stated) | inconclusive: -223%
NC(=S)N/N=C/c1c[nH]c2ccccc12 | inconclusive: 89.6%
COC(=O)c1ccccc1NCCO | inconclusive: 93.3%
O=C(Nc1ccc([N+](=O)[O-])cc1)C(Cc1ccccc1)N1C(=O)c2cccc3cccc(c23)C1=O (configuration not stated) | inconclusive: 107%
CC1CCCN(c2ncnc3c2cnn3-c2ccc(Cl)cc2)C1 (configuration not stated) | inconclusive: 141%
C=CCn1c(SCC(=O)NC2CCS(=O)(=O)C2)nnc1-c1ccncc1 (configuration not stated) | inconclusive: 98.6%
Cc1cccc(CSc2ncccc2C(=O)O)c1 | inactive: 105%
O=C(O)CC1(CC(=O)Nc2cccc(C(F)(F)F)c2)CCCC1 | inconclusive: 320%
CC(C)Cc1nnc(NC(=O)CCC(=O)Nc2ccccc2F)s1 | inconclusive: 112%
COc1ccc(/C=N/n2c(N)c(S(=O)(=O)c3cccs3)c3nc4ccccc4nc32)cc1OC | inactive: 96.6%
COC(=O)C1CCN(C(=O)C(C)Oc2ccc(Cl)cc2Cl)CC1 (configuration not stated) | inactive: 138%
CC1=NN(c2ccc(Cl)cc2)C(=O)C1 | inactive: 97.1%
Cn1c(SCc2ccccc2)nc2ccsc2c1=O | inconclusive: 110%
COc1ccc(N2C(=O)C3C(C2=O)C(C(=O)c2ccccc2)N2CCCC32)cc1 (configuration not stated) | inconclusive: 110%
CC(C)(C)OC(=O)N1CCC(CNC(=O)c2ccc(F)cc2)CC1 | inconclusive: 126%
CCCOc1ccc(C(=O)NCC(c2cccs2)N(C)C)cc1OC (configuration not stated) | inactive: 104%
CCCCNS(=O)(=O)c1ccc2nc(SCC(N)=O)[nH]c2c1 | inconclusive: 90.3%
O=S(=O)(c1ccc(Cl)nc1)N1CCc2ccccc21 | inconclusive: 92.9%
NC(=O)COC(=O)CNC(=O)c1sc2ccccc2c1Cl | inconclusive: 105%
COC(=O)C1=C(C(=O)OC)[C@@H]2N(C)c3ccc(OC)cc3[C@@]23C[C@@H](C(=O)OC)N(S(=O)(=O)c2ccc(OC)cc2)C3=N1 | inconclusive: 84.2%

SMILES | binding response (% of control)
O=C(NC(=O)c1ccccc1O)c1ccc2c(c1)CCO2 | inconclusive: 95.2%
CC(=O)N(c1ccc(C)cc1)S(=O)(=O)c1ccc(Cl)cc1 | inconclusive: 87.3%
O=C(CN1CCN(Cc2ccccc2Cl)CC1)N/N=C/c1ccco1 | inconclusive: 89.6%
CN(CCOCCOc1ccc(Cl)cc1Br)Cc1ccccc1 | inactive: 107%
COc1ccc(-c2c(C)nn3c(-c4ccccc4)cc(C)nc23)cc1 | inconclusive: 94%
CC1CCc2c(sc3ncn(CC(=O)N=Nc4c(O)[nH]c5ccccc45)c(=O)c23)C1 (configuration not stated) | inconclusive: 131%
CC(C)c1ccc2c(c1)CCC1C(C)(CN)CCCC21C (configuration not stated) | inconclusive: 86.2%
Cc1nnc(NN)n(N)c1=O | inconclusive: 199%
OC(CCN1CCC2(CC1)OCCO2)C(F)(F)F (configuration not stated) | inconclusive: 107%
CC(C)(C)NC(=O)COC(=O)CCC(=O)c1ccc(Cl)cc1 | active: 22.1%
CN(Cc1ccccc1)C(=O)c1ccc2c(c1)NC(=O)C(N1CCOCC1)S2 (configuration not stated) | inactive: 96.3%
Cc1c(NS(=O)(=O)c2ccc3c(c2)c(=O)n(C)c(=O)n3C)c(=O)n(-c2ccccc2)n1C | inactive: 96.8%
CCN(CC)C(=O)C(=O)c1cccn1-c1c(Cl)cccc1C#N | active: 158% [activator]
CCCN(CCC)CCCNC(=S)Nc1ccc2nc(N3CCN(CC)CC3)cc(C)c2c1 | inconclusive: 101%
NNC(=O)c1ccc(COCC(F)(F)C(F)F)cc1 | inconclusive: 780%
O=C(/C=C/c1cccs1)NC(=S)Nc1ccc(C(=O)O)cc1 | inconclusive: 142%
COC(=O)C1CCN(c2ccc(Cl)nn2)CC1 | inactive: 97.5%
O=c1nc(SCc2ccccc2Cl)nc(-c2ccc(Cl)cc2)[nH]1 | inconclusive: 119%
CC(=O)c1sc2nc(-c3ccco3)ccc2c1N | inconclusive: -37.5%
CNC(=O)COC(=O)c1ccc(OCC(=O)Nc2ccccc2OC)c(OC)c1 | inconclusive: 93.3%
CCOc1ccccc1C(=O)N1CCN(c2cccc(Cl)c2)CC1 | inactive: 100%
COc1ccc(-c2nc3c4ccccc4ccn3c2CN2CCCCC2)cc1OC | inconclusive: 96.4%
COC(=O)c1ccsc1NC(=O)c1cccc(OC)c1 | inconclusive: 105%

4 neighbouring entries already listed, quoted:
SMILES | binding response (% of control)
CC1CCc2c(sc3ncn(CC(=O)N=Nc4c(O)[nH]c5ccccc45)c(=O)c23)C1 (configuration not stated) | inconclusive: 131%
CC(C)c1ccc2c(c1)CCC1C(C)(CN)CCCC21C (configuration not stated) | inconclusive: 86.2%
Cc1nnc(NN)n(N)c1=O | inconclusive: 199%
OC(CCN1CCC2(CC1)OCCO2)C(F)(F)F (configuration not stated) | inconclusive: 107%
